For experiment [1], the target named is collagen 17A1 (COL17A1) expressed on 721.221 cells (UniProt Q9UMD9). Kind of experiment: flow cytometry, Fc protein at 10 µg/mL on 721.221 cells expressing COL17A1, PE anti-Fc secondary.
The target is the same in experiment [2]. Kind of experiment: flow cytometry, Fc fusion at 10 µg/mL on transduced 721.221 cells. For orientation: In flow cytometry, cells or beads pass a laser one at a time.

Protein sequences, listed by entry. Tags and fused reporters are not part of them.
UniProt Q9UMD9: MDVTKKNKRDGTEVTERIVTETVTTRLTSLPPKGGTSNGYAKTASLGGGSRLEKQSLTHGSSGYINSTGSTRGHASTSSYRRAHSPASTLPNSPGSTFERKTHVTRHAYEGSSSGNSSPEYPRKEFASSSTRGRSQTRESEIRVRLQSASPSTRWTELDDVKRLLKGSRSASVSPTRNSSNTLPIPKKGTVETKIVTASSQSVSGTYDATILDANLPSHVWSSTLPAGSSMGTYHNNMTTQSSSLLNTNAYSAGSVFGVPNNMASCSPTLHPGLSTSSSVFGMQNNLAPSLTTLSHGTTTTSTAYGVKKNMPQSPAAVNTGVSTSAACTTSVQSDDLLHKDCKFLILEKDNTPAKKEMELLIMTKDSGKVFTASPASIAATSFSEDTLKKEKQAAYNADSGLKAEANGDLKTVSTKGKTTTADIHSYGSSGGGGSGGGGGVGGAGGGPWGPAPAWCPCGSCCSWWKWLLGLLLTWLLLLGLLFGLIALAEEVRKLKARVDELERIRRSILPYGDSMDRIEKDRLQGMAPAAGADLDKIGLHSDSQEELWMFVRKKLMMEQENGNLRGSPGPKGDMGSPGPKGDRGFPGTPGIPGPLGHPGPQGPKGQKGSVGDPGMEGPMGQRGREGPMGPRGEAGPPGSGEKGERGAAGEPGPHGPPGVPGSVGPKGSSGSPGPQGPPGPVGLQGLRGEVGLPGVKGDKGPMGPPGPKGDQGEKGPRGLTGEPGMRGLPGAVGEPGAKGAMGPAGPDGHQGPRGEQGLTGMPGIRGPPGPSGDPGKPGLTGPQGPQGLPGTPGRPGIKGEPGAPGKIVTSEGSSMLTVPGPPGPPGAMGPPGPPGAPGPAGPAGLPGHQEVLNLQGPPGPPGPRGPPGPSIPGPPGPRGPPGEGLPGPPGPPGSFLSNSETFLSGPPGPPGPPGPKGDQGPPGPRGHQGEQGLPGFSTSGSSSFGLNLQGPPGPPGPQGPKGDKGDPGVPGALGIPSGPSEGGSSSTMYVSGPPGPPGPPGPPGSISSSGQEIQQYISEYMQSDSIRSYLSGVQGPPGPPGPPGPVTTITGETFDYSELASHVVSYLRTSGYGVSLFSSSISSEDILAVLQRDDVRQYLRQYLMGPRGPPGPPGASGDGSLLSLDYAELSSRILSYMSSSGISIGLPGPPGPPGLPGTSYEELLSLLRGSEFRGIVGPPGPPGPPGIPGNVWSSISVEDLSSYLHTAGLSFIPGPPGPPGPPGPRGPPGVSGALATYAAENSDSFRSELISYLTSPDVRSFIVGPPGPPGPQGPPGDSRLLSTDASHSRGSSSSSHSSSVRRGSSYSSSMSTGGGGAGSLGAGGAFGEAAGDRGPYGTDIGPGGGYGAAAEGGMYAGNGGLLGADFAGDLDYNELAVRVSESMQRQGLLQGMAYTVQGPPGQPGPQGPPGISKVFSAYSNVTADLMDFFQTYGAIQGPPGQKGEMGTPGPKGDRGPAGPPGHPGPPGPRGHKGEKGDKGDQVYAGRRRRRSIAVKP

Consider 2 molecules from patent US20220041711A1.

These are yes or no findings as the source states them, for the method shown. Some binding calls cover weakened binding; strength is not graded here. Tags and fused reporters may be left off the sequences shown.

B1: LAIR-2-Fc (Fc fusion, not shown: a dimerising Fc or GST)
chain: QEGALPRPSISAEPGTVISPGSHVTFMCRGPVGVQTFRLEREDRAKYKDSYNVFRLGPSESEARFHIDSVSEGNAGLYRCLYYKPPGWSEHSDFLELLVKESSGGPDSPDTEPGSSAGTVPGTEASGFDAP
For B1, the binding result in experiment [1] and in experiment [2] was “binds” each time.

B2: human LAIR-1-Fc (Fc fusion, not shown: a dimerising Fc or GST)
chain: QEEDLPRPSISAEPGTVIPLGSHVTFVCRGPVGVQTFRLERESRSTYNDTEDVSQASPSESEARFRIDSVSEGNAGPYRCIYYKPPKWSEQSDYLELLVKETSGGPDSPDTEPGSSAGPTQRPSDNSHNEHAPASQGLKAEHLY
Turning to B2, the binding result in experiment [1] and in experiment [2] was “binds” in each case.
